Data from patent publication US6887467B1, “Double mutants of dihydrofolate reductase and methods of using same” (Sloan-Kettering Institute for Cancer Research, priority 1996, dated 2005).
At least one read-out could not be matched to a standard name with certainty.

Test system: human DHFR (wild type and variants)
Experiment: Kinetic parameters (Km, kcat) of purified DHFR variants with 7,8-dihydrofolate
Assay type: biochemical
Conditions: catalytic efficiency
Protocol: Km or the “Michaelis constant” reflects the ability of an enzyme to convert a given substrate to product. In this case, the substrate is the normal substrate, 7,8-dihydrofolate. Km is determined using a double reciprocal plot of the initial velocity of the reaction as a function of the concentration of the substrate. Higher values of Km reflect a decreased affinity for the normal substrate.
kcat reflects the catalytic turnover of the enzyme. kcat values are obtained by active site titration experiments using MTX or from activity and total protein measurements of purified enzyme species.
The parameters Km and kcat can be combined to provide a measure of overall catalytic efficiency which is given by kcat/Km. High levels of catalytic efficiency are preferred.
Enzyme expressed by the transformed E. coli was purified using an MTX-affinity column, followed by DEAE-Sephacel column chromatography.

## N[C@@H](Cc1ccc(O)cc1)C(=O)O [22 tyrosine, reference compound]
Table 2
  kcat/Km: 10 s^−1μm^−1
Table 3
  kcat/Km: 10 s^−1μM^−1

B1: wild type: wild-type human dihydrofolate reductase, leucine at amino acid 22 and phenylalanine at amino acid 31 (protein, UniProt P00374 1-187, looked up)
Dihydrofolate reductase: MVGSLNCIVAVSQNMGIGKNGDLPWPPLRNEFRYFQRMTTTSSVEGKQNLVIMGKKTWFSIPEKNRPLKGRINLVLSRELKEPPQGAHFLSRSLDDALKLTEQPELANKVDMVWIVGGSSVYKEAMNHPGHLKLFVTRIMQDFESDTFFPEIDLEKYKLLPEYPGVLSDVQEEKGIKYKFEVYEKND
Table 2
  kcat/Km: 159 s^−1μm^−1
Table 3
  kcat/Km: 159 s^−1μM^−1
